# Experimental data taken from patent US11045482B2, “Use of glucocorticoid receptor modulators in the treatment of catecholamine-secreting tumors” (Corcept Therapeutics, Inc., priority 2017, dated 2021).
# At least one compound was matched to its structure with a doubt left.
# Tests used:
# [1] = tested on: metastatic pheochromocytoma associated with ectopic ACTH secretion; test: Case of a person with metastatic pheochromocytoma and Cushing syndrome given mifepristone (Example 1); assay type: in vivo, human; conditions: before enrolment in somatostatin analog study
# Method: A person with metastatic pheochromocytoma associated with ectopic ACTH secretion unresponsive to conventional chemotherapy with CVD (cyclophosphamide, vincristine and dacarbazine) and Sunitinib (tyrosine kinase inhibitors) was enrolled in a phase 2 study with a somatostatin analog. […] At the same time the diagnosis of Cushing syndrome was made and 300 mg of Mifepristone was added to their regimen and the dose was further increased to 600 mg daily two weeks later. […] The plasma epinephrine level after 2 weeks of therapy with mifepristone was decreased by 50%, and the plasma metanephrine level was decreased by 25% after 9 weeks of therapy.
# PHEO cells = conditions: 24 hrs incubation, cited from earlier work
# PNMT mRNA = conditions: intact rats; cited from earlier work
# PGL cells = conditions: 24 hrs incubation; cited from earlier work
# [2] = tested on: PNMT mRNA and enzyme expression; conditions: rats, depletion of corticosteroids by hypophysectomy; cited from earlier work
# [3] = tested on: rat phenylethanolamine N-methyltransferase (PNMT) gene promoter; conditions: RS1 cells, wild-type PNMT promoter-luciferase reporter; cited from earlier work
Compound,response of metastatic pheochromocytoma to prior therapy [1],DBH protein activation (PHEO cells; versus control cells),PNMT protein activation (PHEO cells; versus control cells),TH up-regulation at the protein level (PHEO cells; versus control cells),effect on DBH gene transcription (PHEO cells; PHEO cells),effect on PNMT gene transcription (PHEO cells; PHEO cells),upregulation of TH (mRNA) compared with non-dexamethasone-incubated cells (PHEO cells; PHEO cells) [fold],PNMT mRNA levels (PNMT mRNA),effect on PNMT mRNA (PGL cells),decrease of PNMT mRNA and enzyme expression after hypophysectomy [2],PNMT promoter activity [3],concentration of maximum activation of PNMT promoter [3] [µM]
CCN(CC)CCNC(=O)c1c(C)[nH]c(/C=C2\C(=O)Nc3ccc(F)cc32)c1C [Sunitinib],unresponsive,,,,,,,,,,,
C[C@@H]1C[C@H]2[C@@H]3CCC4=CC(=O)C=C[C@]4(C)[C@@]3(F)[C@@H](O)C[C@]2(C)[C@@]1(O)C(=O)CO [dexamethasone],,Absence of activation,Absence of activation,not confirmed at the protein level,no effect,no effect,2.8,rise markedly,no significant effect,reversed,dose-dependent increase,0.1
